Results are given in words; binding and its absence hold for the method and conditions named. In cells and extracts the contact can be indirect. Here binding means that the protein was enriched with, or labelled near, the bait; the list need not be complete. Tags and fused reporters may be left off the sequences shown.
Target: T1, recombinant His-tagged FGF12 (UniProt P61328)
T1 sequence: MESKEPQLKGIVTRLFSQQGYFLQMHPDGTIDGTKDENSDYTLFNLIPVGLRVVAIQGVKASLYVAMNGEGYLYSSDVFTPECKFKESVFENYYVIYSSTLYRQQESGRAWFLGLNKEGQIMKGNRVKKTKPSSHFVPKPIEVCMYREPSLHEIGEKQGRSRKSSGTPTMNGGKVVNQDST
Experiment: affinity purification with mass spectrometry; recombinant His-tagged FGF12 coupled to Ni-NTA / Ni Sepharose resin, incubated with U2OS cell lysate; on-bead trypsin digestion, LC-MS/MS; only the target purified

Chains of the proteins cited; added tags and fusions are not shown.
UniProt Q14978: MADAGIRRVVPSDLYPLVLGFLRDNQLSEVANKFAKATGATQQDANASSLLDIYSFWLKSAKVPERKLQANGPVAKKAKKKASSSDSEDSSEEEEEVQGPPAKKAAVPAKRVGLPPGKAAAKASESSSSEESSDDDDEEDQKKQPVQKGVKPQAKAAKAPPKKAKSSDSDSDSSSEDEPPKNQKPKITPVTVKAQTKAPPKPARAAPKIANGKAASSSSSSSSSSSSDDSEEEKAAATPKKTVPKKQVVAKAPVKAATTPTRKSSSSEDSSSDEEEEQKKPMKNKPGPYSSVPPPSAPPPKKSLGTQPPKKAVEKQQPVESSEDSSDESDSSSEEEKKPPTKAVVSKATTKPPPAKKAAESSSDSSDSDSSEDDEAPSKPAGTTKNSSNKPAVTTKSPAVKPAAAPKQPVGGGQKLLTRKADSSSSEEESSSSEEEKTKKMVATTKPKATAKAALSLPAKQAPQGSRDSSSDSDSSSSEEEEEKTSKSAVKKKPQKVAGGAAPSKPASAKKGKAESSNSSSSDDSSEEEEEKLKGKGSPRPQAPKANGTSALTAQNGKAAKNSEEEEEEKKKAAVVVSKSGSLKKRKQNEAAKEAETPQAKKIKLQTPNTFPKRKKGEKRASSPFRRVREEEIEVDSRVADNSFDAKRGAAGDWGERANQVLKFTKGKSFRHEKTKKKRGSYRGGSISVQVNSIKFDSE
UniProt Q9NYF8: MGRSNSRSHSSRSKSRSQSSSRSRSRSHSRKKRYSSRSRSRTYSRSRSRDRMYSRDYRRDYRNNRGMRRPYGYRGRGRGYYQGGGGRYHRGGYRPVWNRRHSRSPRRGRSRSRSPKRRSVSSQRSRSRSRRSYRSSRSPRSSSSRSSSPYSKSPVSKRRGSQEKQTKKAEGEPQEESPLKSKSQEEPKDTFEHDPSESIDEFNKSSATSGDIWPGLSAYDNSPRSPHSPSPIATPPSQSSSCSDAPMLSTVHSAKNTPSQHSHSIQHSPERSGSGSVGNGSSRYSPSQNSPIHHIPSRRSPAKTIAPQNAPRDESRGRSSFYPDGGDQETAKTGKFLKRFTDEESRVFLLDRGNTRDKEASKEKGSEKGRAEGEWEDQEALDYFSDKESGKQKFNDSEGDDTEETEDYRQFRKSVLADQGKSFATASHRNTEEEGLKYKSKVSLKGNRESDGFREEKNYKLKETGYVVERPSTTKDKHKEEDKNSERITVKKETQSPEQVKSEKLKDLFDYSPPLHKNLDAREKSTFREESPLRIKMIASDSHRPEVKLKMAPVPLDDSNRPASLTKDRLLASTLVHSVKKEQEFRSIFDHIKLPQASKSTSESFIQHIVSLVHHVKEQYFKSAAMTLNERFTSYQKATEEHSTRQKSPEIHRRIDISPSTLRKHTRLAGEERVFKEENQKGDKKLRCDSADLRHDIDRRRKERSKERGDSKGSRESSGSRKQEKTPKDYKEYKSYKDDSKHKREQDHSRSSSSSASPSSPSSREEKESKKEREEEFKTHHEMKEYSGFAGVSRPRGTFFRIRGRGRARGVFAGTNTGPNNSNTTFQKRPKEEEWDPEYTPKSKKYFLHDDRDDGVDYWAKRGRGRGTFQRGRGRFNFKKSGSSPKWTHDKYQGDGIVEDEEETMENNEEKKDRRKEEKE

Row | binding | Substance
1 | binds | nucleolar and coiled-body phosphoprotein 1 (from UniProt Q14978 1-699)
2 | binds | Bcl-2-associated transcription factor 1 (from UniProt Q9NYF8 1-920)
